# From patent US8741940B2, “Microbicidal composition” (Rohm and Haas Company, priority 2005, dated 2014)
# Experiments:
# Format in all cases: cell-based
# [1] = test system: Escherichia coli (E. coli—ATCC #8739); test: Synergy test, microtiter plate high resolution MIC assay, bacterium in M9GY medium; conditions: ATCC8739, 72 h, read-out: MIC of the component acting alone (QA / QB)
# Protocol: (§1) When the sum of Qa/QA and Qb/QB is greater than one, antagonism is indicated. […] The lower the SI, the greater the synergy shown by that particular mixture. The minimum inhibitory concentration (MIC) of a microbicide is the lowest concentration tested under a specific set of conditions that prevents the growth of added microorganisms.
# (§2) Synergy tests were conducted using standard microtiter plate assays with media designed for optimal growth of the test microorganism. Minimal salt medium supplemented with 0.2% glucose and 0.1% yeast extract (M9GY medium) was used for testing bacteria; Potato Dextrose Broth (PDB medium) was used for testing yeast and mold. In this method, a wide range of combinations of microbicides and other personal care raw materials was tested by conducting high resolution MIC assays in the presence of various concentrations of BBIT or MBIT. High resolution MICs were determined by adding varying amounts of microbicide to one column of a microtitre plate and doing subsequent […] dilutions using an automated liquid handling system to obtain a series of endpoints ranging from 2 ppm to 10,000 ppm active ingredient.
# (§3) The bacteria were used at a concentration of about 5 ×10^6 bacteria per mL and the yeast and mold at 5×10^5 fungi per mL. These microorganisms are representative of natural contaminants in many consumer and industrial applications. […]
# [2] = test system: Candida albicans (C. albicans—ATCC 10231); test: Synergy test, microtiter plate high resolution MIC assay, yeast in PDB medium; conditions: ATCC10231, 24 h, read-out: MIC of the component acting alone (QA / QB)
# Protocol: as §1, §2, §3
# [3] = test system: Aspergillus niger (A. niger—ATCC 16404); test: Synergy test, microtiter plate high resolution MIC assay, mold in PDB medium; conditions: ATCC16404, 168 h, read-out: MIC of the component acting alone (QA / QB)
# Protocol: as §1, §2, §3
structure (smiles),measurement,setting,value
CC(C)(C)CC(C)(C)c1ccc(OCCOCC[N+](C)(C)Cc2ccccc2)cc1 [Benzethonium chloride],MIC,[1],20 µg/mL
same,MIC,[2],4 µg/mL
same,MIC,[3],10 µg/mL
